These are yes or no findings as the source states them, for the method shown. For part of these data: Binding seen in cells or lysates may run through a third protein. Some binding calls cover weakened binding; strength is not graded here. For part of these data: Tags and fused reporters may be left off the sequences shown. Values belong to the binder of their own block, whether it stands above or below them.
Key:
Flag-RUNX2 = Flag-RUNX2 (UniProt Q08775); experiment: co-IP; Flag-RUNX2 and Myc-Med23 co-transfected into 293T cells; lysis buffer 1% NP-40, 10% glycerol, 135 mM NaCl, 20 mM Tris pH 8.0; IP with anti-Flag (M2) at 4 °C overnight, immunoblot with anti-Myc
[1] = molecular target: endogenous RUNX2 (mouse (endogenous in MC3T3E1)) (UniProt Q08775); experiment: co-IP; endogenous proteins in MC3T3E1 cells cultured 4 days with 100 ng/ml BMP2, ascorbic acid and beta-glycerophosphate, MG132 (10 uM) for 2 h before harvest; IP with anti-RUNX2, anti-MED23 or control IgG, immunoblot with anti-MED23 and anti-Runx2
GST-RUNX2 = GST-RUNX2 (UniProt Q08775); experiment: pull-down; purified GST or GST-Runx2 incubated with purified MED23, GST pull-down; bound proteins analysed by SDS-10% PAGE and immunoblot with anti-GST and anti-MED23; both purified

Amino acid sequences for entries named in this document (tags omitted).
UniProt Q08775: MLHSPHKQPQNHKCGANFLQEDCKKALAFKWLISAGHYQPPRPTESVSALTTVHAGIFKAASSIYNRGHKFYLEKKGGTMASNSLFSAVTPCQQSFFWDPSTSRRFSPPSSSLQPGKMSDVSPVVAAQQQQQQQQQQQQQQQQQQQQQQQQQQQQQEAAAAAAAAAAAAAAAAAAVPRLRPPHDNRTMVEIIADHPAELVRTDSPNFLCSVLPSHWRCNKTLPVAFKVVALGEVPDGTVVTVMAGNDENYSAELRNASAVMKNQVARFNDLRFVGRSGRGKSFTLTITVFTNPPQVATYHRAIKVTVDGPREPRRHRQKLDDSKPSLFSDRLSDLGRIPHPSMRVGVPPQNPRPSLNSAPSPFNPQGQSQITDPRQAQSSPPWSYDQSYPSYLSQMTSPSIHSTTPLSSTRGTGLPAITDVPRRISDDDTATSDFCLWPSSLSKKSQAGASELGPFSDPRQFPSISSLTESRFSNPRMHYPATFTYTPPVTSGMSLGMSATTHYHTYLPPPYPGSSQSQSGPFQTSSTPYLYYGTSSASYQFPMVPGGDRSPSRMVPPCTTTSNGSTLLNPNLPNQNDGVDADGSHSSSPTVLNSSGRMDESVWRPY

- binding (Flag-RUNX2): binds
B1: Myc-Med23 (protein, UniProt Q80YQ2 1-1367)
chain: METQLQSIFEEVVKTEIIEEAFPGMFMDTPEDEKTKLISCLAAFRQFWSGLSQESHEQCVQWIVKFIHGQHSPKRISFLYDCLAMAVETGLLPPRMVCESLINSDSLEWERTQLWALTFKLVRKIIGGVDYKGVRDLLKAILEKILTIPNTVSSAVVQQLLAAREVIAYILERNACLLPAYFAVTEIRKLYPEGKLPHWLLGNLVSDFVDTFRPTARINSICGRCSLLPVVNNSGAICNSWKLDPATLRFPLKGLLPYDKDLFEPQTALLRYVLEQPYSRDMVCNMLGLNKQHKQRCPVLEDQLVDLVVYAMERSETEEKFDDGGTSQLLWQHLSSQLIFFVLFQFASFPHMVLSLHQKLAGRGLIKGRDHLMWVLLQFISGSIQKNALADFLPVMKLFDLLYPEKECIPVPDINKPQSTHAFAMTCIWIHLNRKAQNGDSTLQIPIPHSLKLHHEFLQQSLRNKSLQMNDYKIALLCNAYSTNSECFTLPMGALVETIYGNGIMRVPLPGTSCLASASVTPLPMNLLDSLTVHAKMSLIHSIATRVIKLAHTKSSVALAPALVETYSRLLVYMEIESLGIKGFISQLLPTVFKSHAWGILHTLLEMFSHRMHHIQPHYRVQLLSHLHTLAAVAQTNQNQLHLCVESTALRLITALGSSEVQPQFTRFLNDPKTVLSAESEELNRALILTLARATHVTDFFTGSDSIQGTWCKDILQTIMNFTPHNWASHTLSCFPAPLQAFFKQNNVPQESRFNLKKNVEEEYRKWKSMTDENEIITQFSVQGFPPLFLCLLWKMLLETDHISQIGYKVLERIGARALVAHVRTFADFLVYEFSTSAGGQQLNKCIEILNDMVWKYNIVTLDRLILCLAMRSHEGNEAQVCYFIIQLLLLKPNDFRNRVSDFVKENSPEHWLQSDWHTKHMSYHKKYPEKLYFEGLAEQVDPPVPIQSPYLPIYFGNVCLRFLPVFDIVIHRFLELLPVSKSLETLLDHLGGLYKFHDRPVTYLYNTLHYYEMCLRNRDHLKRKLVHAIIGSLKDNRPQGWCLSDTYLKHAMNAREDNPWVPEDSYYCKLIGRLVDTMAGKSPGPFPNCDWRFNEFPNPAAHALHVTCVELMALAVPGKDVGNALLNVVLKSQPLVPRENITAWMNAIGLIITALPEPYWIVLHDRIVNVISSSSLTSETEWVGYPFRLFDFTACHQSYSEMSCSYTLALAHAVWHHSSIGQLSLIPKFLTEALLPVVKTEFQLLYVYHLVGPFLQRFQQERTRCMIEIGVAFYDMLLNVDQCSTHLNYMDPICDFLYHMKYMFTGDSVKEQVEKIICNLKPALKLRLRFITHISKMEPAVPPQALNSGSPAPQSNQVPASLPVTQ

- binding [1]: binds
B2: endogenous MED23 (protein, UniProt Q80YQ2 1-1367)
chain: B1 chain

- binding (GST-RUNX2): binds
B3: His-Flag-MED23 (protein, UniProt Q80YQ2 1-1367)
chain: B1 chain
